Paper PMC6280682, “The Micronemal Plasmodium Proteins P36 and P52 Act in Concert to Establish the Replication-Permissive Compartment Within Infected Hepatocytes” (Frontiers in Cellular and Infection Microbiology, 2018)
These are yes or no findings as the source states them, for the method shown. Binding seen in cells or lysates may run through a third protein. Some results given as binding are weak or reduced against the parent protein; the word gives no strength. Tags and fused reporters may be left off the sequences shown.

Columns and labels:
[1] = biological target: T1, Plasmodium yoelii P36 with a C-terminal mCherry tag (P36^mCherry) (Plasmodium yoelii) (UniProt Q7RPW4); test: co-IP; P36^mCherry immunoprecipitated from salivary gland sporozoite lysate (10 mM Tris-HCl pH 7.5, 150 mM NaCl, 0.5 mM EDTA, 0.5% NP-40) with RFP-Trap_MA beads, 4°C 1 h, four washes; western blot with α-mCherry and α-P52; wild-type lysate and unconjugated beads as controls
T1 sequence: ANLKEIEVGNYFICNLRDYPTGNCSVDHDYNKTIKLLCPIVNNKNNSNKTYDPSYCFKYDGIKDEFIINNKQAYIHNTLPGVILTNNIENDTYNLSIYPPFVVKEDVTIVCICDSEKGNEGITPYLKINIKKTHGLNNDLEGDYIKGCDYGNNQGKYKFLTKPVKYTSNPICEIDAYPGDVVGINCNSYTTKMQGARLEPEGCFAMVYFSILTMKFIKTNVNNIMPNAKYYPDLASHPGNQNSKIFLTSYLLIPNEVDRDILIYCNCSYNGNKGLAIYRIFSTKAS

[2] = biological target: T1, Plasmodium yoelii P36 with a C-terminal mCherry tag (P36^mCherry) (Plasmodium yoelii); test: cross-linking; P36^mCherry sporozoite lysate (PBS-based buffers) cross-linked with 2.5 mM BS3 on ice for 2 h; SDS-PAGE and western blot with α-mCherry and α-P52

B1: Plasmodium yoelii P52 (natural protein)
chain: NVPNPNTTIGHFEICEVNTSSGDAEECVLENEFGKMFLFICDIDYNEMSKNIVLPSECAKKTYIDHVNPNGTSPEVNTYDIFPDLIAANESQFRDKFYFYGTPYSSKDIDFICLCFSETKPDIKHVMKMSFKKMTKKIKGCDFGDNIPTKKDLTNGKALYENSSCHIYAYPGDVIGINCYKKDINNIYNNNLELQPNNCFHNVYYEDDILLSSKNLIPNSRVIPDPSNDVKLSKMHSYMSYIILPDEINENVKISCACKRDEYIGTMFLYVNTSKNILTSPDNNVEEIAPLNDHYISIGDMWDMGLHENPEQIQGIISNHANKKYYEHMKIYKSNKMDSSDDDESNETESSENESNERTHNGNRANKDANNSEKMTGNRRKKNNSINNTNYYSNYEDDNGINISTHDKYYEDQHFGNNGPLRKKRTFWQNMFGTS
notes: P52, Plasmodium yoelii 17X, 6-cys s48/45 family, two s48/45 domains; predicted MW 53 kDa; also called Py P52; source: endogenous, P. yoelii P36^mCherry salivary gland sporozoite lysate
binding [1]: binds | binding [2]: binds
